{
  "source": "patent US20210401926A1",
  "about": "“PHARMACEUTICAL FORMULATIONS OF PEPTIDE INHIBITORS” (CANIMGUIDE THERAPEUTICS AB, priority 2018, published 2021)",
  "experiment": "P28R concentration in flow through after sterile filtration (spectrophotometer)",
  "format": "physicochemical",
  "note": "Part of at least one peptide drawing is inferred or uncertain, most often the ends. Marks after values point to notes of the source that are not given here. Where no end group is shown, it is not given here.",
  "data": [
    {"sequence": "KKLDTFFVKLSLFTER [P28R]", "values": [
      {"measurement": "P28R concentration in flow through", "setting": "Aliquot 4 (1 ml), Formula B without NaOH and NaCl, pH 3.6, 0.27 mg/ml, 25 mm 0.2 μm PES filter", "value": 0.26, "unit": "mg/mL"},
      {"measurement": "P28R concentration in flow through", "setting": "Aliquot 4 (1 ml), Formula B without NaOH and NaCl, 50 mm Baxter filter", "value": 0.26, "unit": "mg/mL"},
      {"measurement": "P28R concentration in flow through", "setting": "Aliquot 4, Formula B without NaCl and NaOH, pH 3.6, 0.37 mg/ml, PES filter", "value": 0.36, "unit": "mg/mL"},
      {"measurement": "P28R concentration in flow through", "setting": "Aliquot 5 (1.0 ml), Formula B pH 4.8 without NaCl, 0.26 mg/ml, 50 mm Baxter filter saturated from previous filtration", "value": 0.26, "unit": "mg/mL"},
      {"measurement": "P28R concentration in flow through", "setting": "Aliquot 5 (1 ml), Formula B without NaOH and NaCl, pH 3.6, 0.27 mg/ml, 25 mm 0.2 μm PES filter", "value": 0.27, "unit": "mg/mL"},
      {"measurement": "P28R concentration in flow through", "setting": "Aliquot 5 (1 ml), Formula B without NaOH and NaCl, 50 mm Baxter filter", "value": 0.26, "unit": "mg/mL"},
      {"measurement": "P28R concentration in flow through", "setting": "Aliquot 5, Formula B without NaCl and NaOH, pH 3.6, 0.37 mg/ml, PES filter", "value": 0.37, "unit": "mg/mL"},
      {"measurement": "P28R concentration in flow through", "setting": "Aliquot 6 (1.0 ml), Formula B pH 4.8 without NaCl, 0.26 mg/ml, 50 mm Baxter filter saturated from previous filtration", "value": 0.26, "unit": "mg/mL"},
      {"measurement": "P28R concentration in flow through", "setting": "Aliquot 6 (1 ml), Formula B without NaOH and NaCl, pH 3.6, 0.27 mg/ml, 25 mm 0.2 μm PES filter", "value": 0.28, "unit": "mg/mL"},
      {"measurement": "P28R concentration in flow through", "setting": "Aliquot 6 (1 ml), Formula B without NaOH and NaCl, 50 mm Baxter filter", "value": 0.27, "unit": "mg/mL"},
      {"measurement": "P28R concentration in flow through", "setting": "Aliquot 6, Formula B without NaCl and NaOH, pH 3.6, 0.37 mg/ml, PES filter", "value": 0.34, "unit": "mg/mL"},
      {"measurement": "P28R concentration in flow through", "setting": "Aliquot 7 (1 ml), Formula B without NaOH and NaCl, 50 mm Baxter filter", "value": 0.27, "unit": "mg/mL"},
      {"measurement": "P28R concentration in flow through", "setting": "Aliquot 7, Formula B without NaCl and NaOH, pH 3.6, 0.37 mg/ml, PES filter", "value": 0.36, "unit": "mg/mL"},
      {"measurement": "P28R concentration in flow through", "setting": "Aliquot 8 (1 ml), Formula B without NaOH and NaCl, 50 mm Baxter filter", "value": 0.27, "unit": "mg/mL"},
      {"measurement": "P28R concentration in flow through", "setting": "Aliquot 8, Formula B without NaCl and NaOH, pH 3.6, 0.37 mg/ml, PES filter", "value": 0.36, "unit": "mg/mL"},
      {"measurement": "P28R concentration in flow through", "setting": "Aliquot 9 (1 ml), Formula B without NaOH and NaCl, 50 mm Baxter filter", "value": 0.27, "unit": "mg/mL"},
      {"measurement": "P28R concentration in flow through", "setting": "Aliquot 9, Formula B without NaCl and NaOH, pH 3.6, 0.37 mg/ml, PES filter", "value": 0.36, "unit": "mg/mL"},
      {"measurement": "P28R concentration in flow through", "setting": "Aliquot 10 (1 ml), Formula B without NaOH and NaCl, 50 mm Baxter filter", "value": 0.27, "unit": "mg/mL"},
      {"measurement": "P28R concentration in flow through", "setting": "Aliquot 10, Formula B without NaCl and NaOH, pH 3.6, 0.37 mg/ml, PES filter", "value": 0.36, "unit": "mg/mL"},
      {"measurement": "P28R concentration in flow through", "setting": "Aliquot 11 (1 ml), Formula B without NaOH and NaCl, 50 mm Baxter filter", "value": 0.27, "unit": "mg/mL"},
      {"measurement": "P28R concentration in flow through", "setting": "Aliquot 11, Formula B without NaCl and NaOH, pH 3.6, 0.37 mg/ml, PES filter", "value": 0.35, "unit": "mg/mL"},
      {"measurement": "P28R concentration in flow through", "setting": "Aliquot 12 (1 ml), Formula B without NaOH and NaCl, 50 mm Baxter filter", "value": 0.27, "unit": "mg/mL"},
      {"measurement": "P28R concentration in flow through", "setting": "Aliquot 12, Formula B without NaCl and NaOH, pH 3.6, 0.37 mg/ml, PES filter", "value": 0.37, "unit": "mg/mL"},
      {"measurement": "P28R concentration in flow through", "setting": "Aliquot 13 (1 ml), Formula B without NaOH and NaCl, 50 mm Baxter filter, liquid filled a previously dry area on the membrane", "value": "0.25* mg/ml"},
      {"measurement": "P28R concentration in flow through", "setting": "Aliquot 14 (1 ml), Formula B without NaOH and NaCl, 50 mm Baxter filter", "value": 0.26, "unit": "mg/mL"},
      {"measurement": "P28R concentration in flow through", "setting": "Aliquot 15 (1 ml), Formula B without NaOH and NaCl, 50 mm Baxter filter", "value": 0.26, "unit": "mg/mL"},
      {"measurement": "P28R concentration in flow through", "setting": "Aliquot 16 (1 ml), Formula B without NaOH and NaCl, 50 mm Baxter filter", "value": 0.27, "unit": "mg/mL"},
      {"measurement": "P28R concentration in flow through", "setting": "Aliquot 17 (1 ml), Formula B without NaOH and NaCl, 50 mm Baxter filter", "value": 0.27, "unit": "mg/mL"},
      {"measurement": "P28R concentration in flow through", "setting": "Aliquot 18 (1 ml), Formula B without NaOH and NaCl, 50 mm Baxter filter", "value": 0.28, "unit": "mg/mL"},
      {"measurement": "P28R concentration in flow through", "setting": "Aliquot 19 (1 ml), Formula B without NaOH and NaCl, 50 mm Baxter filter", "value": 0.27, "unit": "mg/mL"},
      {"measurement": "P28R concentration in flow through", "setting": "Aliquot 20 (1 ml), Formula B without NaOH and NaCl, 50 mm Baxter filter", "value": 0.28, "unit": "mg/mL"},
      {"measurement": "P28R concentration in flow through", "setting": "Aliquot 21 (1 ml), Formula B without NaOH and NaCl, 50 mm Baxter filter", "value": 0.27, "unit": "mg/mL"},
      {"measurement": "P28R concentration in flow through", "setting": "Aliquot 22 (1 ml), Formula B without NaOH and NaCl, 50 mm Baxter filter", "value": 0.27, "unit": "mg/mL"},
      {"measurement": "P28R concentration in flow through", "setting": "Aliquot 23 (1 ml), Formula B without NaOH and NaCl, 50 mm Baxter filter", "value": 0.27, "unit": "mg/mL"},
      {"measurement": "P28R concentration in flow through", "setting": "Aliquot 24 (1 ml), Formula B without NaOH and NaCl, pH 3.6, 0.27 mg/ml, 25 mm 0.2 μm PES filter", "value": 0.27, "unit": "mg/mL"},
      {"measurement": "P28R concentration in flow through", "setting": "Aliquot 24 (1 ml), Formula B without NaOH and NaCl, 50 mm Baxter filter", "value": 0.27, "unit": "mg/mL"},
      {"measurement": "P28R concentration in flow through", "setting": "limited selection of aliquots 7-23 (marked *), data not shown, Formula B without NaOH and NaCl, pH 3.6, 25 mm PES filter", "value": "0.26 to 0.28", "unit": "mg/mL"}
    ]}
  ]
}
